Source: patent publication US10670605B2, “Cysteine reactive probes and uses thereof” (The Scripps Research Institute, priority 2015, dated 2020)
At least one compound was matched to its structure with a doubt left.

By UniProt entry, the sequences of proteins in these tests, tags left out. Where a name states a change or a piece, a line headed by the entry shows the natural chain unless it says otherwise. Residues count along the entry.
UniProt Q06187: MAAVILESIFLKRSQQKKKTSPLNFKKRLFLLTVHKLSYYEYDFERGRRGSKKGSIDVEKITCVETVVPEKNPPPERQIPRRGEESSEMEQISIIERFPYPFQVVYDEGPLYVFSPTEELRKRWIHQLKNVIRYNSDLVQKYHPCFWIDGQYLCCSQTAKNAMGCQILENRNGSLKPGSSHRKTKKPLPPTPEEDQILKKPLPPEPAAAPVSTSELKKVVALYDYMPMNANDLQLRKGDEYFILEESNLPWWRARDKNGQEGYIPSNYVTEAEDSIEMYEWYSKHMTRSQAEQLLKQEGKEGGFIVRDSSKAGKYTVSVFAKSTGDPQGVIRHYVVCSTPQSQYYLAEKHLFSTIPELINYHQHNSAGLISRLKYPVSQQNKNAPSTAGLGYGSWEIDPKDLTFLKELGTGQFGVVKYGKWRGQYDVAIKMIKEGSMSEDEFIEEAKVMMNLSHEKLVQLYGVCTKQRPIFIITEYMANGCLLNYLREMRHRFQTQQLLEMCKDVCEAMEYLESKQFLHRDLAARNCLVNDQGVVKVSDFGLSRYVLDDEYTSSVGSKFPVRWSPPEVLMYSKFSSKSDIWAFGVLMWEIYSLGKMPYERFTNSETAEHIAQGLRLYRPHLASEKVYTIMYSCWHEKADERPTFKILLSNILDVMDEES
UniProt O14980, whole entry: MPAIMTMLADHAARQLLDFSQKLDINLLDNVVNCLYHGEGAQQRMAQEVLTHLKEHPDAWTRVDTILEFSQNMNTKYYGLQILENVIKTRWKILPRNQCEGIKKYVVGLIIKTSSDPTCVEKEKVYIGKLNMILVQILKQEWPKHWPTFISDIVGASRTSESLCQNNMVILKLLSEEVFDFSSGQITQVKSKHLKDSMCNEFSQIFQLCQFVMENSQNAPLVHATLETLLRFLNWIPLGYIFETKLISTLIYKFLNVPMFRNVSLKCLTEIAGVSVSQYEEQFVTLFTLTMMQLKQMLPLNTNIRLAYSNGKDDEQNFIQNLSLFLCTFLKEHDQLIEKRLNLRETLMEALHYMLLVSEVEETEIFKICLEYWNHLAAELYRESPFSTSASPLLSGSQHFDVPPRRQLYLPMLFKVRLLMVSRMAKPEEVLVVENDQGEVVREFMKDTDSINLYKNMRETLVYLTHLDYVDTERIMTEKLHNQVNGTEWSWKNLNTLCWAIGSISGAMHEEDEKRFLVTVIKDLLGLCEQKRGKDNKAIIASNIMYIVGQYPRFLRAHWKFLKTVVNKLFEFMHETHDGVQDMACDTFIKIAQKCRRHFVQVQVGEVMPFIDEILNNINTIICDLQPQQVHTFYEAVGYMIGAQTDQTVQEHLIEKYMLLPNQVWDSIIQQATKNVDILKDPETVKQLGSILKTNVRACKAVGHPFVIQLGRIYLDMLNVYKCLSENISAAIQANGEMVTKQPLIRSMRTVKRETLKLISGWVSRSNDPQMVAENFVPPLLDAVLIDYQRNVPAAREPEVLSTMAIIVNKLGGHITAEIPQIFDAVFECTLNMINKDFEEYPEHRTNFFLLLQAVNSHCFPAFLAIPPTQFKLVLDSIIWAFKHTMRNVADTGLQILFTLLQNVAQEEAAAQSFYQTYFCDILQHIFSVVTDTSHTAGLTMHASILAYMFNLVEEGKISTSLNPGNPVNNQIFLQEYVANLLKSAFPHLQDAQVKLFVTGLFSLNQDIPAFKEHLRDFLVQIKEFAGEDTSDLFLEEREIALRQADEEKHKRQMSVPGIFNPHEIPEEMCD
UniProt Q14790: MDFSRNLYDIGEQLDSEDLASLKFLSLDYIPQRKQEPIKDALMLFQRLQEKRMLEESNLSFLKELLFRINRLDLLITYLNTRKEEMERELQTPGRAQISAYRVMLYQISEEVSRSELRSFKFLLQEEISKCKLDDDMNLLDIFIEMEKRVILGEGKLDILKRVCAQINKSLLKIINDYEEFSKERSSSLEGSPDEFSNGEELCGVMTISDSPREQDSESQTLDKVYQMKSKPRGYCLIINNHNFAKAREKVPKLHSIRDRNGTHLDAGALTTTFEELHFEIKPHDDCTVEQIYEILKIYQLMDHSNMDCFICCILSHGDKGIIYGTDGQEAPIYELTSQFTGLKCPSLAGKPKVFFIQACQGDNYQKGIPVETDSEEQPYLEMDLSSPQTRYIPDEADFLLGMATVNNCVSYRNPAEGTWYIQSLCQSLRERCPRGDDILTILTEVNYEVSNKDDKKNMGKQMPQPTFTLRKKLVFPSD
UniProt Q9UBR2, 62-303: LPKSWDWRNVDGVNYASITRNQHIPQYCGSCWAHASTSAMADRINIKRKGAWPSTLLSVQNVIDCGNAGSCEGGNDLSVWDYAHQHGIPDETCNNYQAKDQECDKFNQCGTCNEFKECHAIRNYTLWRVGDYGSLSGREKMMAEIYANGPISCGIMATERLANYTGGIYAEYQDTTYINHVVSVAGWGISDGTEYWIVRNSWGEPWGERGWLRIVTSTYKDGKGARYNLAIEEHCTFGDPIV

What was measured:
Type in all cases: binding
BTK C481 = target: T1, BTK C481 (Homo sapiens, UniProt Q06187); test: Competitive isoTOP-ABPP
T1 construct: endogenous in cells; host or cells: Ramos and/or MDA-MB-231 soluble lysate

Park 7 C106 = target: T2, Park 7 C106 (Homo sapiens, UniProt Q99497); test: Competitive isoTOP-ABPP, cell lysates; conditions: Park 7, isoTOP-ABPP
T2 sequence (Q99497 1-189): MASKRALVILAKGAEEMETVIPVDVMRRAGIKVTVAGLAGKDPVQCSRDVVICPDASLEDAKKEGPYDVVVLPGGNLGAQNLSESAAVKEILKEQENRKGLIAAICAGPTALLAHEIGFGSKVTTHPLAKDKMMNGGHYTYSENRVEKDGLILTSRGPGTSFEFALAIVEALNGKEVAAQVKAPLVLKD

ERCC3 C342 (P19447) = target: T3, ERCC3 C342 (P19447) (Homo sapiens, UniProt P19447); test: Competitive isoTOP-ABPP, cell lysates
T3 sequence (P19447 1-782): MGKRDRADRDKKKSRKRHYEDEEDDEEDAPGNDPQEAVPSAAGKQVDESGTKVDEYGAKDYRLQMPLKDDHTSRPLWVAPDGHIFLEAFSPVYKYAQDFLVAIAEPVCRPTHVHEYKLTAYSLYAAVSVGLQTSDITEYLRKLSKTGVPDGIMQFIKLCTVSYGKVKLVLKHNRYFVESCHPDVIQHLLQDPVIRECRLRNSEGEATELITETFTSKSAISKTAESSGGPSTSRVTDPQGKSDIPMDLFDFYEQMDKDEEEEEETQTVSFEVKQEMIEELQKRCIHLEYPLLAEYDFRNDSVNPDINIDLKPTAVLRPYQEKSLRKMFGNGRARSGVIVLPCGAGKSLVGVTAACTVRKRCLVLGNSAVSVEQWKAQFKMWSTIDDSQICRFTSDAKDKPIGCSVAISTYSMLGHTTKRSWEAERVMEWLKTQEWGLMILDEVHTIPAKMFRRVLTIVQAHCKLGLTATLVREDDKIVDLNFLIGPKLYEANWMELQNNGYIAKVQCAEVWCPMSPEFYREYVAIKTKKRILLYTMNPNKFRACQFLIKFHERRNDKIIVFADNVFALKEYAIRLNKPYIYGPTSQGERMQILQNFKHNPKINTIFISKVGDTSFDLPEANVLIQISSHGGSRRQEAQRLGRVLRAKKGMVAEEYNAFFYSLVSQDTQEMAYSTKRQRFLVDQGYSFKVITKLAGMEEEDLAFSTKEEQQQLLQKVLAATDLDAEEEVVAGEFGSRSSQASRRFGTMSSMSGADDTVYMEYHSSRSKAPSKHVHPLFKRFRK

XPO1 C528 (O14980) = XPO1 C528 (O14980) (Homo sapiens, UniProt O14980); test: Competitive isoTOP-ABPP, cell lysates
Experimental: (§1) TEV digests were pressure loaded onto a 250 μm (inner diameter) fused silica capillary column packed with C18 resin (Aqua 5 μm, Phenomenex). The samples were analyzed by multidimensional liquid chromatography tandem mass spectrometry (MudPIT), using an LTQ-Velos Orbitrap mass spectrometer (Thermo Scientific) coupled to an Agilent 1200-series quaternary pump. The peptides were eluted onto a biphasic column with a 5 μm tip (100 μm fused silica, packed with C18 (10 cm) and bulk strong cation exchange resin (3 cm, SCX, Phenomenex,)) in a 5-step MudPIT experiment, using 0%, 30%, 60%, 90%, and 100% salt bumps of 500 mM aqueous ammonium acetate and using a gradient of 5-100% buffer B in buffer A (buffer A: 95% water, 5% acetonitrile, 0.1% formic acid; buffer B: 5% water, 95% acetonitrile, 0.1% formic acid) as has been described in Weerapana et al. Nat Protoc 2:1414-1425 (2007). Data was collected in data-dependent acquisition mode with dynamic exclusion enabled (20 s, repeat of 2). One full MS (MS1) scan (400-1800 m/z) was followed by 30 MS2 scans (ITMS) of the nth most abundant ions.
(§2) The ratios of heavy/light for each unique peptide (DMSO/compound treated; isoTOP-ABPP ratios, R values) were quantified with in-house CIMAGE software, using default parameters (3 ms s per peak and signal to noise threshold 2.5). Site-specific engagement of electrophilic fragments was assessed by blockade of IA-alkyne probe labeling. […] Ratios for unique peptide entries were calculated for each experiment; overlapping peptides with the same modified cysteine (e.g. different charge states, MudPIT chromatographic steps or tryptic termini) were grouped together and the median ratio was reported as the final ratio (R). The peptide ratios reported by CIMAGE were further filtered to ensure the removal or correction of low quality ratios in each individual dataset. The quality filters applied were the following: removal of half tryptic peptides; for ratios with high standard deviations from the median (90% of the median or above) the lowest ratio was taken instead of the median; removal of peptides with R=20 and only a single ms2 event triggered during the elution of the parent ion; manual annotation of all the peptides with ratios of 20, removing any peptides with low-quality elution profiles that remained after the previous curation steps. Proteome reactivity values for individual fragments were computed as the percentage of the total quantified cysteine-containing peptides with R values≥4 (defined as liganded cysteines) for each replicate experiment and the final proteome reactivity value was calculated as the mean for all replicate experiments for each fragment from both MDA-MB-231 and Ramos cellular proteomes.
(§3) Biological replicates of the same compound and cell-line were averaged if the standard deviation was below 60% of the mean; otherwise the lowest value of the ratio set was taken.

CASP8 C360 (Q14790) = CASP8 C360 (Q14790) (Homo sapiens, UniProt Q14790); test: Competitive isoTOP-ABPP, cell lysates
Experimental: as §1, §2, §3

Casp5 C315 = target: T4, Casp5 C315 (Homo sapiens, UniProt P51878); test: Competitive isoTOP-ABPP, cell lysates
T4 sequence (P51878 137-434): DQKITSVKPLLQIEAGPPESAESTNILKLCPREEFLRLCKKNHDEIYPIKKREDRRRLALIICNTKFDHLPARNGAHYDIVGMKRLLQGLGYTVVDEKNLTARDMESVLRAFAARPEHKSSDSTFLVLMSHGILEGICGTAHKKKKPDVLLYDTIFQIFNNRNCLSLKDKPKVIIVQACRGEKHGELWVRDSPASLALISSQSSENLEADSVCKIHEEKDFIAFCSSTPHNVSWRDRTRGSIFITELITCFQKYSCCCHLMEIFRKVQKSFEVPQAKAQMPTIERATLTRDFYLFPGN

ALDH2 C319 = target: T5, ALDH2 C319 (Homo sapiens, UniProt P05091); test: Competitive isoTOP-ABPP, cell lysates
T5 sequence (P05091 18-517): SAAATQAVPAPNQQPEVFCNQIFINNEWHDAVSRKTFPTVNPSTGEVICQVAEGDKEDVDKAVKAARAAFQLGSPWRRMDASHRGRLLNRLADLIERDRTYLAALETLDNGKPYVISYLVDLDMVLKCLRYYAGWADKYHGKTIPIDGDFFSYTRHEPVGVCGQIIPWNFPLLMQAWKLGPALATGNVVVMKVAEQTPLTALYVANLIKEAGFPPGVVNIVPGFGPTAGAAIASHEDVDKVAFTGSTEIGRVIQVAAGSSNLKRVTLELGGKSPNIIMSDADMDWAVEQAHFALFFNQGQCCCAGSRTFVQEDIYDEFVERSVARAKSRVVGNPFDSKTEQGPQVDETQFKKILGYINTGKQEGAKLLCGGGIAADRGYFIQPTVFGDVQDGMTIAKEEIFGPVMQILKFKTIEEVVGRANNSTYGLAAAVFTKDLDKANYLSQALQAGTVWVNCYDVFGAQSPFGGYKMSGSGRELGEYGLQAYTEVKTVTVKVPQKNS

CTSZ C92 = CTSZ C92 (Homo sapiens, UniProt Q9UBR2); test: Competitive isoTOP-ABPP, cell lysates
GSTO1 C32 = target: T6, GSTO1 C32 (Homo sapiens, UniProt P78417); test: Competitive isoTOP-ABPP, cell lysates
T6 sequence (P78417 1-241): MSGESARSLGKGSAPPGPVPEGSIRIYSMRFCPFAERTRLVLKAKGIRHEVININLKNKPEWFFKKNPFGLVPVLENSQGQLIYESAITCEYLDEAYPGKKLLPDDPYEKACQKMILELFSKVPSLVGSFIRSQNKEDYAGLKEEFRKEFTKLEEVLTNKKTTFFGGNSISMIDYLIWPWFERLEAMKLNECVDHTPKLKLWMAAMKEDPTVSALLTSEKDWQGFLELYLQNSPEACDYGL

COc1ccc2c(c1)CCCN2C(=O)CCl [compound 2]
liganded cysteine targeted by fragment (BTK C481): C481
liganded cysteine targeted by fragment (Park 7 C106): C106
liganded cysteine targeted by fragment (ERCC3 C342 (P19447)): C342
liganded cysteine targeted by fragment (XPO1 C528 (O14980)): C528
liganded cysteine targeted by fragment (CASP8 C360 (Q14790)): C360

O=C(CCl)Nc1cc(C(F)(F)F)cc(C(F)(F)F)c1 [compound 3]
liganded cysteine targeted by fragment (BTK C481): C481
liganded cysteine targeted by fragment (Casp5 C315): C315
liganded cysteine targeted by fragment (ERCC3 C342 (P19447)): C342
liganded cysteine targeted by fragment (XPO1 C528 (O14980)): C528
liganded cysteine targeted by fragment (ALDH2 C319): C319

COc1ccc(C2CC(c3cccs3)=NN2C(=O)CCl)cc1 (stereo not shown) [compound 4]
liganded cysteine targeted by fragment (CTSZ C92): C92
liganded cysteine targeted by fragment (CASP8 C360 (Q14790)): C360

COc1cc2c(cc1OC)CN(C(=O)CCl)CC2 [compound 8]
liganded cysteine targeted by fragment (Park 7 C106): C106
liganded cysteine targeted by fragment (ERCC3 C342 (P19447)): C342

O=C(CCl)N1CCC(Cc2ccccc2)CC1 [compound 9]
liganded cysteine targeted by fragment (Park 7 C106): C106

Cn1cc(S(=O)(=O)N2CCOCC2)cc1C(=O)NC(=O)CCl [compound 11]
liganded cysteine targeted by fragment (CTSZ C92): C92
liganded cysteine targeted by fragment (Park 7 C106): C106
liganded cysteine targeted by fragment (CASP8 C360 (Q14790)): C360

O=C(CCl)NC12CC3CC(CC(C3)C1)C2 [compound 21]
liganded cysteine targeted by fragment (ERCC3 C342 (P19447)): C342

CC(Br)C(=O)Nc1cc(C(F)(F)F)cc(C(F)(F)F)c1 (stereo not shown) [compound 24]
liganded cysteine targeted by fragment (XPO1 C528 (O14980)): C528

CC(C)CCOCCNC(=O)CCl [compound 27]
liganded cysteine targeted by fragment (ALDH2 C319): C319

COc1ccccc1OCCNC(=O)CCl [compound 28]
liganded cysteine targeted by fragment (CTSZ C92): C92
liganded cysteine targeted by fragment (ALDH2 C319): C319

C=CC(=O)N(Cc1cccnc1)c1cc(C(F)(F)F)cc(C(F)(F)F)c1 [compound 31]
liganded cysteine targeted by fragment (BTK C481): C481
liganded cysteine targeted by fragment (XPO1 C528 (O14980)): C528

O=C(CCl)Nc1cc(C(=O)O)cc(C(F)(F)F)c1 [compound 36]
liganded cysteine targeted by fragment (GSTO1 C32): C32

COC(=O)C1Cc2ccccc2CN1C(=O)CCl (stereo not shown) [compound 39]
liganded cysteine targeted by fragment (GSTO1 C32): C32
liganded cysteine targeted by fragment (ALDH2 C319): C319

C=CC(=O)Nc1cc(C)c(Br)cc1C [compound 40]
liganded cysteine targeted by fragment (ALDH2 C319): C319

COc1cc(NC(=O)CCl)cc(OC)c1 [compound 43]
liganded cysteine targeted by fragment (GSTO1 C32): C32
liganded cysteine targeted by fragment (Park 7 C106): C106
liganded cysteine targeted by fragment (XPO1 C528 (O14980)): C528
liganded cysteine targeted by fragment (ALDH2 C319): C319

Cc1ccc(C(F)(F)F)cc1NC(=O)CCl [compound 49]
liganded cysteine targeted by fragment (GSTO1 C32): C32
liganded cysteine targeted by fragment (ALDH2 C319): C319

O=C(CCl)N1CCc2cc(Br)ccc21 [compound 50]
liganded cysteine targeted by fragment (Casp5 C315): C315
liganded cysteine targeted by fragment (GSTO1 C32): C32
liganded cysteine targeted by fragment (Park 7 C106): C106
liganded cysteine targeted by fragment (ALDH2 C319): C319

O=C(CCl)Nc1ccc(-c2ccccc2)cc1 [compound 52]
liganded cysteine targeted by fragment (GSTO1 C32): C32
liganded cysteine targeted by fragment (Park 7 C106): C106

Cc1ncc(CO)c(CNC(=O)CCl)c1O [compound 54]
liganded cysteine targeted by fragment (GSTO1 C32): C32

CCCN(C(=O)CCl)c1c(N)n(CCC)c(=O)[nH]c1=O [compound 55]
liganded cysteine targeted by fragment (GSTO1 C32): C32
